Results deposited as PubChem BioAssay AID1159578 (Peter MacCallum Cancer Centre, 2015)

- Test: 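Knock-downs that alter how fast lymphatic endothelial cells migrate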 (primary screen)
- System: human lymphatic endothelial cells
- Reagents: siRNA pool against human genes, 40 nM
- Timing: 48 h after transfection
- Measured: 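Cells stained with dye and imaged after a scratch; covered wound area and nuclei counted, duplicates averaged, migration set against mock wells and turned into a robust z-score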
- Reading the numbers: migration robust z-score: higher = faster migration into the scratch; migration relative to mock: higher = more scratch area covered than mock; nuclei per well: higher = more cells in the well
- Rule for the call: 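Pools averaging fewer than 3300 nuclei are never called; remaining pools count as changed when migration robust z lies outside -2 to 2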
- Calls: active = migration changed; inactive = no migration change, or too few cells
In all, the deposit lists about 18,000 reagents; below is an unselected part. About 1,030 of them (5.7%) count as active. 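Inactive calls also include pools with fewer than 3300 nuclei, whose migration was not assessed.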 Raw values vary from plate to plate and are shown uncorrected. Unmarked entries are inactive. Reagent sequences are not shown.

gene symbol | migration robust z-score | migration class with cell-count check | migration relative to mock | nuclei per well, duplicate mean
ACYP2 | 0.49 | migration z between -2 and 2; enough cells | 0.9 | 5670
CDC42EP5 | 0.86 | migration z between -2 and 2; enough cells | 1.11 | 4747
HIGD2A | -2 | migration z between -2 and 2; enough cells | 0.37 | 7232
OSCP1 | -1.34 | migration z between -2 and 2; enough cells | 0.54 | 5567
PTP4A1 | -0.13 | migration z between -2 and 2; enough cells | 0.78 | 5746
OR2A14 | -0.17 | migration z between -2 and 2; enough cells | 0.84 | 5552
TRDN | 0.24 | migration z between -2 and 2; enough cells | 0.94 | 5284
RNF41 | 0.08 | migration z between -2 and 2; enough cells | 0.82 | 4876
CTSG | 0.28 | migration z between -2 and 2; enough cells | 0.86 | 5595
STOML2 | -0.93 | migration z between -2 and 2; enough cells | 0.64 | 6097
ROPN1B | 0.54 | migration z between -2 and 2; enough cells | 1.02 | 7034
WDR81 | 0.11 | migration z between -2 and 2; enough cells | 0.92 | 6648
CD96 | 0.94 | migration z between -2 and 2; enough cells | 0.98 | 6192
ABCB4 | -1.27 | migration z between -2 and 2; enough cells | 0.56 | 6326
GULP1 | 0.2 | migration z between -2 and 2; enough cells | 0.84 | 7090
GDA | 0.68 | migration z between -2 and 2; enough cells | 0.94 | 6269
H2BC17 | -4.28 | under 3300 nuclei; migration not judged | -0.22 | 2240
FMN2 | 4.34 (active) | migration z above 2; enough cells | 2.01 | 6490
FBXW11 | -2.86 (active) | migration z below -2; enough cells | 0.26 | 5392
ADIPOR2 | 0.46 | migration z between -2 and 2; enough cells | 1.01 | 5438
CCDC69 | 0.94 | migration z between -2 and 2; enough cells | 1.13 | 6028
CTRL | 3.32 (active) | migration z above 2; enough cells | 1.44 | 5256
TGIF1 | 0.24 | migration z between -2 and 2; enough cells | 0.94 | 6690

3 neighbouring records from above, for reference:
gene symbol | migration robust z-score | migration class with cell-count check | migration relative to mock | nuclei per well, duplicate mean
GULP1 | 0.2 | migration z between -2 and 2; enough cells | 0.84 | 7090
GDA | 0.68 | migration z between -2 and 2; enough cells | 0.94 | 6269
H2BC17 | -4.28 | under 3300 nuclei; migration not judged | -0.22 | 2240
